No constants are given. Whether binding was seen depends on the method and setting. In cells and extracts the contact can be indirect. Some binding calls cover weakened binding; strength is not graded here.

Data on one molecule can be found in patent US20030105000A1.

In the assay the target is Grb7 (in lysate of heregulin-stimulated SKBR3 cells) (UniProt Q14451). In words: co-immunoprecipitation competition in SKBR3 lysate, peptide at 100 uM; blocked partner ErbB family.

Take RSTLCWFEGYDNTFPCKYFR (non-phosphorylated; disulfide bond between the two fixed cysteines) [G7-18 free synthetic peptide]: the binding result is reported as “binds”.
